No constants are given. Whether binding was seen depends on the method and setting. Binding seen in cells or lysates may run through a third protein. Some entries that bind do so weakly or less than the wild type. Where a sequence is shown, tags or fusion partners need not be part of it.
T1: FLAG-tagged full-length IRF7 (IFN regulatory factor 7) (human), Q92985
T1 chain: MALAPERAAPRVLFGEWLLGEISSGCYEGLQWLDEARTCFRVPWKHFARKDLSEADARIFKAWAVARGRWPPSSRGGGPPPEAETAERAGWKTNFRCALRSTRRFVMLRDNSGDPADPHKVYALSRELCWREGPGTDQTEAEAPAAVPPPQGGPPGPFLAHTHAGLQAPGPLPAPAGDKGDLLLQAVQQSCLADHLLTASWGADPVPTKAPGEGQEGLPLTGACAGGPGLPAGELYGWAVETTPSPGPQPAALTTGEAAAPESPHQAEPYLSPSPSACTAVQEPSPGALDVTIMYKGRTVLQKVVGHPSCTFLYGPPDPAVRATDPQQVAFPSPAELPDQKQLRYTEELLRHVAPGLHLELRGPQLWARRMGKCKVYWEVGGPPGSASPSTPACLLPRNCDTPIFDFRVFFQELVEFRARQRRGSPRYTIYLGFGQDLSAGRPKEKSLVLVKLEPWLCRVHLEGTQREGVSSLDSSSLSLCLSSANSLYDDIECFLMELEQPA

Protein sequences, listed by entry. Tags and fused reporters are not part of them.
UniProt Q9Y3Z3: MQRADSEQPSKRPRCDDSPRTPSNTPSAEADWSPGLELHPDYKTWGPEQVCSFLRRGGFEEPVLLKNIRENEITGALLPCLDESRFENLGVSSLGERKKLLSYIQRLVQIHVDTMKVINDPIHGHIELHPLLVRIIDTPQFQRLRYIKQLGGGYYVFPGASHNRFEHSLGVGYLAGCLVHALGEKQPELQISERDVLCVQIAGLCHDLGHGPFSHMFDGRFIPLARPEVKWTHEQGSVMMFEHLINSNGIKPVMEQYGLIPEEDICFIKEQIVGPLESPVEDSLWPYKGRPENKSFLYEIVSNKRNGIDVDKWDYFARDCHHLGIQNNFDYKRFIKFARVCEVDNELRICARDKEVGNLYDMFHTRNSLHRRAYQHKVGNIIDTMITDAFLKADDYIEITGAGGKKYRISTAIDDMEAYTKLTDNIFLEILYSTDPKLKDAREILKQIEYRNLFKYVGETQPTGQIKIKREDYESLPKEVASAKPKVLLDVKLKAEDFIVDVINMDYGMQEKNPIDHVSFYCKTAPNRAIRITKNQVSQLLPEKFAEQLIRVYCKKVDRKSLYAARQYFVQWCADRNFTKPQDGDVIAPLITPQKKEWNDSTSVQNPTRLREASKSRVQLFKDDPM
UniProt Q7Z434: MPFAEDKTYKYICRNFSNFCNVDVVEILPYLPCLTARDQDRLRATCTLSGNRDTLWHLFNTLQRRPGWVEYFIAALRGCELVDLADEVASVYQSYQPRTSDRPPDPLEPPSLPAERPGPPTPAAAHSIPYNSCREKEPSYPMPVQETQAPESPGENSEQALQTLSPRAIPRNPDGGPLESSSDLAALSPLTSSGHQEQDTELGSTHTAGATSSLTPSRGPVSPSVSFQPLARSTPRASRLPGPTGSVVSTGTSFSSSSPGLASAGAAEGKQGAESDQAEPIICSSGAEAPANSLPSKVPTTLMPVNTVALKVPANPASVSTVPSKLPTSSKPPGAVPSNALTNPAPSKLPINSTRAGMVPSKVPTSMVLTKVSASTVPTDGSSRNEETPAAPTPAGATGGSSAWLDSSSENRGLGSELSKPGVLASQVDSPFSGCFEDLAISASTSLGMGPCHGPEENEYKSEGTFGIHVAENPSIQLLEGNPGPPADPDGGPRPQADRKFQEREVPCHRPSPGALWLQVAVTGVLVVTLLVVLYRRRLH

B1: kinase-inactive IKKε K38A (enzyme, UniProt Q14164 1-716)
chain: MQSTANYLWHTDDLLGQGATASVYKARNKKSGELVAVAVFNTTSYLRPREVQVREFEVLRKLNHQNIVKLFAVEETGGSRQKVLVMEYCSSGSLLSVLESPENAFGLPEDEFLVVLRCVVAGMNHLRENGIVHRDIKPGNIMRLVGEEGQSIYKLTDFGAARELDDDEKFVSVYGTEEYLHPDMYERAVLRKPQQKAFGVTVDLWSIGVTLYHAATGSLPFIPFGGPRRNKEIMYRITTEKPAGAIAGAQRRENGPLEWSYTLPITCQLSLGLQSQLVPILANILEVEQAKCWGFDQFFAETSDILQRVVVHVFSLSQAVLHHIYIHAHNTIAIFQEAVHKQTSVAPRHQEYLFEGHLCVLEPSVSAQHIAHTTASSPLTLFSTAIPKGLAFRDPALDVPKFVPKVDLQADYNTAKGVLGAGYQALRLARALLDGQELMFRGLHWVMEVLQATCRRTLEVARTSLLYLSSSLGTERFSSVAGTPEIQELKAAAELRSRLRTLAEVLSRCSQNITETQESLSSLNRELVKSRDQVHEDRSIQQIQCCLDKMNFIYKQFKKSRMRPGLGYNEEQIHKLDKVNFSHLAKRLLQVFQEECVQKYQASLVTHGKRMRVVHETRNHLRLVGCSVAACNTEAQGVQESLSKLLEELSHQLLQDRAKGAQASPPPIAPYPSPTRKDLLLHMQELCEGMKLLASDLLDNNRIIERLNRVPAPPDV
B2: FLAG-tagged full-length IRF7 (IFN regulatory factor 7) (protein, UniProt Q92985 1-503)
chain: MALAPERAAPRVLFGEWLLGEISSGCYEGLQWLDEARTCFRVPWKHFARKDLSEADARIFKAWAVARGRWPPSSRGGGPPPEAETAERAGWKTNFRCALRSTRRFVMLRDNSGDPADPHKVYALSRELCWREGPGTDQTEAEAPAAVPPPQGGPPGPFLAHTHAGLQAPGPLPAPAGDKGDLLLQAVQQSCLADHLLTASWGADPVPTKAPGEGQEGLPLTGACAGGPGLPAGELYGWAVETTPSPGPQPAALTTGEAAAPESPHQAEPYLSPSPSACTAVQEPSPGALDVTIMYKGRTVLQKVVGHPSCTFLYGPPDPAVRATDPQQVAFPSPAELPDQKQLRYTEELLRHVAPGLHLELRGPQLWARRMGKCKVYWEVGGPPGSASPSTPACLLPRNCDTPIFDFRVFFQELVEFRARQRRGSPRYTIYLGFGQDLSAGRPKEKSLVLVKLEPWLCRVHLEGTQREGVSSLDSSSLSLCLSSANSLYDDIECFLMELEQPA
B3: FLAG-tagged full-length IRF7 (IFN regulatory factor 7), Q92985 1-503 (protein)
chain: MALAPERAAPRVLFGEWLLGEISSGCYEGLQWLDEARTCFRVPWKHFARKDLSEADARIFKAWAVARGRWPPSSRGGGPPPEAETAERAGWKTNFRCALRSTRRFVMLRDNSGDPADPHKVYALSRELCWREGPGTDQTEAEAPAAVPPPQGGPPGPFLAHTHAGLQAPGPLPAPAGDKGDLLLQAVQQSCLADHLLTASWGADPVPTKAPGEGQEGLPLTGACAGGPGLPAGELYGWAVETTPSPGPQPAALTTGEAAAPESPHQAEPYLSPSPSACTAVQEPSPGALDVTIMYKGRTVLQKVVGHPSCTFLYGPPDPAVRATDPQQVAFPSPAELPDQKQLRYTEELLRHVAPGLHLELRGPQLWARRMGKCKVYWEVGGPPGSASPSTPACLLPRNCDTPIFDFRVFFQELVEFRARQRRGSPRYTIYLGFGQDLSAGRPKEKSLVLVKLEPWLCRVHLEGTQREGVSSLDSSSLSLCLSSANSLYDDIECFLMELEQPA
B4: myc-tagged full-length IKKε (enzyme, UniProt Q14164 1-716)
chain: MQSTANYLWHTDDLLGQGATASVYKARNKKSGELVAVKVFNTTSYLRPREVQVREFEVLRKLNHQNIVKLFAVEETGGSRQKVLVMEYCSSGSLLSVLESPENAFGLPEDEFLVVLRCVVAGMNHLRENGIVHRDIKPGNIMRLVGEEGQSIYKLTDFGAARELDDDEKFVSVYGTEEYLHPDMYERAVLRKPQQKAFGVTVDLWSIGVTLYHAATGSLPFIPFGGPRRNKEIMYRITTEKPAGAIAGAQRRENGPLEWSYTLPITCQLSLGLQSQLVPILANILEVEQAKCWGFDQFFAETSDILQRVVVHVFSLSQAVLHHIYIHAHNTIAIFQEAVHKQTSVAPRHQEYLFEGHLCVLEPSVSAQHIAHTTASSPLTLFSTAIPKGLAFRDPALDVPKFVPKVDLQADYNTAKGVLGAGYQALRLARALLDGQELMFRGLHWVMEVLQATCRRTLEVARTSLLYLSSSLGTERFSSVAGTPEIQELKAAAELRSRLRTLAEVLSRCSQNITETQESLSSLNRELVKSRDQVHEDRSIQQIQCCLDKMNFIYKQFKKSRMRPGLGYNEEQIHKLDKVNFSHLAKRLLQVFQEECVQKYQASLVTHGKRMRVVHETRNHLRLVGCSVAACNTEAQGVQESLSKLLEELSHQLLQDRAKGAQASPPPIAPYPSPTRKDLLLHMQELCEGMKLLASDLLDNNRIIERLNRVPAPPDV

Columns and labels:
[1] = biological target: HA-tagged SAMHD1 WT (sterile alpha motif and HD domain-containing protein 1) (human) (UniProt Q9Y3Z3); test: co-IP; HEK293T cotransfected, lysed 36 h posttransfection; IP with anti-HA antibody (HA-SAMHD1 as bait) and Dynabeads Protein G; nonspecific IgG as negative control; washed with 50 mM Tris (pH7.4), 150 mM NaCl, 1% NP-40, 0.25% sodium deoxycholate; immunoblot
[2] = biological target: T1, FLAG-tagged full-length IRF7 (IFN …); test: co-IP; HEK293T cotransfected, lysed 36 h posttransfection; IP with anti-FLAG antibody and Dynabeads Protein G; washed with 50 mM Tris (pH7.4), 150 mM NaCl, 1% NP-40, 0.25% sodium deoxycholate; immunoblot; conditions: remark: other sources report otherwise
[3] = biological target: FLAG-tagged full-length MAVS (mitochondrial antiviral-signaling protein) (human) (UniProt Q7Z434); test: as above

Row | Binder | binding [1] | binding [2] | binding [3]
1 | B1 | binds |  | 
2 | B2 | binds |  | 
3 | B3 |  | binds | 
4 | B4 | binds |  | binds

Source: paper PMC10404699
